Melanoma cell counts after drug treatment

From a melanoma drug combination screen (doi:10.1371/journal.pone.0140310); values rounded.

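Human melanoma cells were exposed to two drugs together for 72 h in 1,536-well plates and read by automated microscopy after fixing and staining. Values are the number of DAPI-stained nuclei as a percentage of the DMSO control: 100 is no effect, lower means fewer cells. Concentrations were fixed for each drug; these are the lower of two levels, a fifth of the higher. These are primary screening values without error estimates.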 Only some of the drugs and lines screened are listed, without regard to their results. An entry leaves out what has no value listed here. A dash means that no value is listed here.

Drugs:
IMD-0354: O=C(Nc1cc(C(F)(F)F)cc(C(F)(F)F)c1)c1cc(Cl)ccc1O at 0.016 µM
FH535: Cc1cc([N+](=O)[O-])ccc1NS(=O)(=O)c1cc(Cl)ccc1Cl at 1 µM
tipifarnib: Cn1cncc1[C@@](N)(c1ccc(Cl)cc1)c1ccc2c(c1)c(-c1cccc(Cl)c1)cc(=O)n2C at 0.01 µM
ZM336372: Cc1ccc(NC(=O)c2cccc(N(C)C)c2)cc1NC(=O)c1ccc(O)cc1 at 2 µM
OSI-906: C[C@]1(O)C[C@@H](c2nc(-c3ccc4ccc(-c5ccccc5)nc4c3)c3c(N)nccn32)C1 at 0.4 µM
enzastaurin: Cn1cc(C2=C(c3cn(C4CCN(Cc5ccccn5)CC4)c4ccccc34)C(=O)NC2=O)c2ccccc21 at 0.8 µM
AS-252424: O=C1NC(=O)/C(=C/c2ccc(-c3ccc(F)cc3O)o2)S1 at 1 µM
STA-4783: CN(NC(=O)CC(=O)NN(C)C(=S)c1ccccc1)C(=S)c1ccccc1 at 0.006 µM
GW441756: Cn1cc(/C=C2\C(=O)Nc3cccnc32)c2ccccc21 at 0.4 µM
dasatinib: Cc1nc(Nc2ncc(C(=O)Nc3c(C)cccc3Cl)s2)cc(N2CCN(CCO)CC2)n1 at 0.004 µM
veliparib: C[C@]1(c2nc3c(C(N)=O)cccc3[nH]2)CCCN1 at 1.4 µM
BI-D1870: CC(C)CCN1c2nc(Nc3cc(F)c(O)c(F)c3)ncc2N(C)C(=O)C1C (stereo not given) at 0.2 µM
Src-I1: COc1cc2ncnc(Nc3ccc(Oc4ccccc4)cc3)c2cc1OC at 2 µM
crizotinib: C[C@@H](Oc1cc(-c2cnn(C3CCNCC3)c2)cnc1N)c1c(Cl)ccc(F)c1Cl at 0.2 µM
everolimus: CO[C@H]1C[C@@H]2CC[C@@H](C)[C@@](O)(O2)C(=O)C(=O)N2CCCC[C@H]2C(=O)O[C@H]([C@H](C)C[C@@H]2CC[C@@H](OCCO)[C@H](OC)C2)CC(=O)[C@H](C)/C=C(\C)[C@@H](O)[C@@H](OC)C(=O)[C@H](C)C[C@H](C)/C=C/C=C/C=C/1C at 0.02 µM
RKI-983: C[C@@H](N)c1ccc(C(=O)Nc2ccnc3[nH]ccc23)cc1 at 0.4 µM
SU6656: CN(C)S(=O)(=O)c1ccc2c(c1)/C(=C/c1cc3c([nH]1)CCCC3)C(=O)N2 at 0.4 µM
CX-4945: O=C(O)c1ccc2c(c1)nc(Nc1cccc(Cl)c1)c1ccncc12 at 0.4 µM
MK-1775: C=CCn1c(=O)c2cnc(Nc3ccc(N4CCN(C)CC4)cc3)nc2n1-c1cccc(C(C)(C)O)n1 at 0.02 µM
XAV939: Oc1nc(-c2ccc(C(F)(F)F)cc2)nc2c1CSCC2 at 2 µM
palbociclib: CC(=O)c1c(C)c2cnc(Nc3ccc(N4CCNCC4)cn3)nc2n(C2CCCC2)c1=O at 0.04 µM

Drugs | A2058 | COLO 792 | 501mel | C32 | WM3526 | MEL-HO | COLO 800 | IPC-298 | A375 | LB2518-MEL | WM451Lu | G-361
tipifarnib and RKI-983 | 85.4 | - | - | 87.0 | - | - | - | - | 96.3 | - | - | -
everolimus and Src-I1 | - | 48.0 | - | - | - | - | - | - | - | - | - | -
IMD-0354 and SU6656 | 101 | - | - | 86.9 | - | - | - | - | 118 | - | - | -
SU6656 and ZM336372 | - | - | - | 71.6 | - | - | - | - | - | - | - | -
GW441756 and BI-D1870 | 97.5 | - | 66.8 | 87.4 | 88.0 | - | - | - | 99.5 | - | 93.1 | -
IMD-0354 and dasatinib | - | 59.3 | - | - | - | 87.3 | 122 | 96.2 | - | 105 | - | 98.9
CX-4945 and tipifarnib | 88.9 | - | - | 94.4 | - | - | - | - | 77.6 | - | - | -
crizotinib and STA-4783 | 66.9 | - | - | 74.5 | - | - | - | - | 33.1 | - | - | -
XAV939 and RKI-983 | - | - | - | 91.1 | - | - | - | - | - | - | - | -
MK-1775 and AS-252424 | - | 82.7 | - | - | - | 96.2 | 106 | 96.1 | - | 91.1 | - | 95.2
palbociclib and STA-4783 | - | 48.6 | - | - | - | - | - | - | - | - | - | -
veliparib and OSI-906 | - | 110 | - | - | - | - | - | - | - | - | - | -
BI-D1870 and Src-I1 | 102 | - | - | 91.1 | - | - | - | - | 112 | - | - | -
tipifarnib and palbociclib | 92.6 | 62.4 | - | 64.2 | - | 76.8 | 75.4 | 80.6 | 44.9 | 64.3 | - | 59.7
enzastaurin and everolimus | 64.0 | - | - | 99.8 | - | - | - | - | 69.8 | - | - | -
GW441756 and tipifarnib | 106 | 95.7 | 88.9 | 88.7 | - | 95.9 | 43.4 | 101 | 104 | 107 | - | 103
ZM336372 and enzastaurin | 87.8 | - | - | 115 | - | - | - | - | 91.9 | - | - | -
GW441756 and FH535 | 93.5 | - | 106 | 91.8 | 107 | - | - | - | 77.1 | - | 98.2 | -

Some entries from above, unchanged:

- veliparib and OSI-906 : COLO 792: 110
- enzastaurin and everolimus : A2058: 64.0; C32: 99.8; A375: 69.8